Source: patent US20230151342A1, “ZINC FINGER DEGRADATION DOMAINS” (THE BROAD INSTITUTE, INC, priority 2020, published 2023)
Results are given in words; binding and its absence hold for the method and conditions named. Some results given as binding are weak or reduced against the parent protein; the word gives no strength.

Amino acid sequences for entries named in this document (tags omitted). A change or cut given only in a name is not applied to a line headed by its entry. Chains listed by the source or under a name are the forms on record and can include a tag or linker. Residues count along the entry.
CRBNΔ3 (Q96SW2, form named): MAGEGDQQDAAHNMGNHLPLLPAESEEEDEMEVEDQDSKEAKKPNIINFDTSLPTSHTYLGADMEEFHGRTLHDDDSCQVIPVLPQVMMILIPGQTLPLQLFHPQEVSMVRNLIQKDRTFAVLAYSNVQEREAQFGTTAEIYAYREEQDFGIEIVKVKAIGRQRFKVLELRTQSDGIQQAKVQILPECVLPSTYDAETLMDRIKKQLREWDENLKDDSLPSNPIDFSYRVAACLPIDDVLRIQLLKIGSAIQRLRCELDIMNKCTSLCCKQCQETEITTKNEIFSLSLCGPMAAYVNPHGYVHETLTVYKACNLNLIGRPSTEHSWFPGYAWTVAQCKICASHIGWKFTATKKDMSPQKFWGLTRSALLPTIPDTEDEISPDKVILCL
UniProt Q9UKT9, residues 130-189: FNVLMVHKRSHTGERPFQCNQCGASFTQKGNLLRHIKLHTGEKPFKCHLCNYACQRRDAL

Target: CRBNΔ3 (UniProt Q96SW2)
Test: NanoBRET between Nanoluc- and HaloTag-bearing proteins in 293T cells, with MG132 and lenalidomide (FIG. 16); binding depends on lenalidomide

binding: binds
Substance: dIKZF3 (zinc finger degron from IKZF3) (from UniProt Q9UKT9 130-189)
